This passage reports binding results from patent publication US20200393470A1.

No constants are given. Whether binding was seen depends on the method and setting. Some entries that bind do so weakly or less than the wild type. Sequences can lack the tags named with a protein.

In experiment [1] the target is T1, human ANGPTL8 monomer protein with myc-myc-his tag (human) (UniProt Q6UXH0).
T1 sequence: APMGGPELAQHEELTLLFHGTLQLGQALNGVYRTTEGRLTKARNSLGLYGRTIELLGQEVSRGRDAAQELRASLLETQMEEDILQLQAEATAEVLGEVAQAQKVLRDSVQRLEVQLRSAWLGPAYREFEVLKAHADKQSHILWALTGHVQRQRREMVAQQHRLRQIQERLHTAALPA
The experiment in a line: sandwich ELISA, biotinylated detection mAb, monomer standard. (An ELISA detects its analyte on a solid surface through an enzyme-linked reagent.)

The target in experiment [2] is T2, untagged human ANGPTL8 protein (outsourced production, Genscript) (human) (UniProt Q6UXH0).
T2 sequence: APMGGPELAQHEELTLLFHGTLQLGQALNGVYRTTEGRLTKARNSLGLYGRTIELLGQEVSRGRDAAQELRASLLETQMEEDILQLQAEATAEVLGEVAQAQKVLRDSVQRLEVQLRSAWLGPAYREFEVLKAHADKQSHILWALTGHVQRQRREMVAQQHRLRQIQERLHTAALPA
The experiment in a line: sandwich ELISA, H4H15347P capture, biotin-H4H15318P detection.

In experiment [3] the target is T1, human ANGPTL8 monomer protein with myc-myc-his tag (human). The experiment in a line: sandwich ELISA, capture mAb, monomer standard.

B1: H4H15318P (antibody, V domains shown)
VH: QVQLVESGGGVVQPGRSLRLSCTASGFTFGNFGIHWVRQAPGKGLEWVAVISYDGTDKFYADPVKGRFIISRDNSMNILYLQMNSLRAEDTAVYYCAKDGEMELRGYYYYYGMDVWGQGTTVTVSS
VL: DIQMTQSPSSVSASVGDRVTITCRASQGINTWLAWYQQKPGTAPKLLIFAASSLESGVPSRFSGSGFGTDFTLTISSLQSEDLATYFCQQVHSPPYTFGQGTKLEIK
In the case of B1, the binding result in experiment [1] and in experiment [2] was “binds” each time.

B2: H4H15347P (antibody, human IgG4, V domains shown)
VH: EVQLVESGGGLVQPGGSLRLSCAASGFTFRNYAMNWARQAPGKGLEWVSGITGSGGATYYADSVKGRFTISRENSKNTLFLQMDTLRAEDTAVYYCAKDRRYFPTSGGPQWGQGTLVTVSS
VL: DIVMTQSPLSLPVTPGEPASISCRSSRSLLHSSGYNYLDWYLQKPGQSPQLLLYLGSNRASGVPDRFSGSGSGTYFTLKISRVDAEDVGVYYCMQALQTPWTFGQGTKVEIK
With B2, the binding result in experiment [3] and in experiment [2] was “binds” throughout.
